From the supplement of paper PMC6411743
± gives the standard deviation of the averaged measurements. The list shows a part of the results, in another mix than the full data.

Amino acid sequences for entries named in this document (tags omitted). A change or cut given only in a name is not applied to a line headed by its entry.
UniProt P62314, whole entry: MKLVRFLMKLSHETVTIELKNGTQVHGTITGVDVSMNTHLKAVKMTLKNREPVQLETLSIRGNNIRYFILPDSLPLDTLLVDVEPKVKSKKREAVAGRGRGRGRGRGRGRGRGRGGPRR
UniProt Q02535: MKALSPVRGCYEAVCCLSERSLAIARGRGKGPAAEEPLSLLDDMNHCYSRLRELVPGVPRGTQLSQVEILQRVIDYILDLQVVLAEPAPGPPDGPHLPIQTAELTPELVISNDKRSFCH
UniProt P60520, whole entry: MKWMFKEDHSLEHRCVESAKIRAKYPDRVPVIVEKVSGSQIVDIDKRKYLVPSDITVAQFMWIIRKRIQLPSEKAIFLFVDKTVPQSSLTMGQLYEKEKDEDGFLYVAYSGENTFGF
UniProt P55957: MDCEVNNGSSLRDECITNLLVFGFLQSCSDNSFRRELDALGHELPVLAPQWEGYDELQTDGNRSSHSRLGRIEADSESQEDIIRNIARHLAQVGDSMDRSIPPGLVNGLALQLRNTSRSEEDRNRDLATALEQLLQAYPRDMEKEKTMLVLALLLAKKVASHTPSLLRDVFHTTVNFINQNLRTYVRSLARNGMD
UniProt P55769: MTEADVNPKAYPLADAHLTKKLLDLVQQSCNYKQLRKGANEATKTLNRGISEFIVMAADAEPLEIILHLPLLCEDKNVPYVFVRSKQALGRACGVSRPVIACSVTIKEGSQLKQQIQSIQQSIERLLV
UniProt Q06203, whole entry: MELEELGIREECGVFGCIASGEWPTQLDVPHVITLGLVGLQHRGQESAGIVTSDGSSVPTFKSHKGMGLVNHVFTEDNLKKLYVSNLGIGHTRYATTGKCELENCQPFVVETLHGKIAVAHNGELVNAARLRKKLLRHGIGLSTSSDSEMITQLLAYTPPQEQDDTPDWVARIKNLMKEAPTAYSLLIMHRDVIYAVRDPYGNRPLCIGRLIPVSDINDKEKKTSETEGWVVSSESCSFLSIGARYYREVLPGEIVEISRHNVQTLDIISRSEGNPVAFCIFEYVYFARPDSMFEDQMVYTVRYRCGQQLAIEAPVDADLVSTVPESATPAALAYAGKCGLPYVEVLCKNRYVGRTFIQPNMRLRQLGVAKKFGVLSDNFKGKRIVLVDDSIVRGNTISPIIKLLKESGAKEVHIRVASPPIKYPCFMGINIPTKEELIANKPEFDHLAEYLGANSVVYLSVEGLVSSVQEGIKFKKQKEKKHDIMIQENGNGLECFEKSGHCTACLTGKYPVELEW
UniProt P67775, whole entry: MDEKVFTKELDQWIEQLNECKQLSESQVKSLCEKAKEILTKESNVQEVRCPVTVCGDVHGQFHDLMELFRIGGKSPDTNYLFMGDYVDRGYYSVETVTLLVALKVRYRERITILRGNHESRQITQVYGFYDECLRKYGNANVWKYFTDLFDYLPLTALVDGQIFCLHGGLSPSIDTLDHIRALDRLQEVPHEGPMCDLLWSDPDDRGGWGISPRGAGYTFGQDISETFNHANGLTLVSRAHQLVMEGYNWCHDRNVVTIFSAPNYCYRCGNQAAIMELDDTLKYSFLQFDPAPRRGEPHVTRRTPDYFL
UniProt Q01826: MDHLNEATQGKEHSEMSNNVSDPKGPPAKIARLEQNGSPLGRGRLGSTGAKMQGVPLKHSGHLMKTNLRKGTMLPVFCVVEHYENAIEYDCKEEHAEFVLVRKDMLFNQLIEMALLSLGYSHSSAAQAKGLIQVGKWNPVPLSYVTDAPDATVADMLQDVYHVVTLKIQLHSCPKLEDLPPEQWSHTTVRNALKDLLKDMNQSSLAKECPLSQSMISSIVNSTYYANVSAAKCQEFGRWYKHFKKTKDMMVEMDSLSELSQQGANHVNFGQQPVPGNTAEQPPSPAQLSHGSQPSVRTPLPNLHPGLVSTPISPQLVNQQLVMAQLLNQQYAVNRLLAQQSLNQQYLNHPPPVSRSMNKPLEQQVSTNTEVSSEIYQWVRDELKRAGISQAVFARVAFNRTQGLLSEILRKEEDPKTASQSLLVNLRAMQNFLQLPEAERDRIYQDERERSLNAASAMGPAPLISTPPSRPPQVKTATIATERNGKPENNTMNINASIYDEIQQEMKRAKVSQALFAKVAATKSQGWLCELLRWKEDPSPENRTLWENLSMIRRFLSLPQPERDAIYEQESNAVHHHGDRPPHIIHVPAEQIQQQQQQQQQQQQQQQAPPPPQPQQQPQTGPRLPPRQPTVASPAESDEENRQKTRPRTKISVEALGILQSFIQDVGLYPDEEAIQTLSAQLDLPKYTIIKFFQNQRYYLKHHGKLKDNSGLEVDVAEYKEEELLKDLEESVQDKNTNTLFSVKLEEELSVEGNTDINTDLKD
UniProt P62253: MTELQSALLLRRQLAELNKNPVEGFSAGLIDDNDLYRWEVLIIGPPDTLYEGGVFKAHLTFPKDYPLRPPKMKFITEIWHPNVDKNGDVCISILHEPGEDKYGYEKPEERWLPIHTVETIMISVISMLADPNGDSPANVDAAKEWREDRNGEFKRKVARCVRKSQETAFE
UniProt Q03933: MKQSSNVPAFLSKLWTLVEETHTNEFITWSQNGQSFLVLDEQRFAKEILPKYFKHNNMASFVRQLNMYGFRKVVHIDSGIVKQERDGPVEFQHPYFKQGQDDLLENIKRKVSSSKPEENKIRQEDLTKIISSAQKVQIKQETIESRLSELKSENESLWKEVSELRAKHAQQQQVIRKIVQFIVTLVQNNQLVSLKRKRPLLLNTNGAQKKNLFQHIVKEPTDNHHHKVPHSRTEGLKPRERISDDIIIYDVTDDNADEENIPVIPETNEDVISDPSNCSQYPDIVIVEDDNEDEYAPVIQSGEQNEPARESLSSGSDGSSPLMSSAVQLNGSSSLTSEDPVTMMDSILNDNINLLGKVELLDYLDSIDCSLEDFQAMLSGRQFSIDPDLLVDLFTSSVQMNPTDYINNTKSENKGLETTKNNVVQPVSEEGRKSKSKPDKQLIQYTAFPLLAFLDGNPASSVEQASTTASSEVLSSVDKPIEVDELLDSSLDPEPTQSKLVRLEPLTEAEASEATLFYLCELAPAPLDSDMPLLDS
UniProt Q02790: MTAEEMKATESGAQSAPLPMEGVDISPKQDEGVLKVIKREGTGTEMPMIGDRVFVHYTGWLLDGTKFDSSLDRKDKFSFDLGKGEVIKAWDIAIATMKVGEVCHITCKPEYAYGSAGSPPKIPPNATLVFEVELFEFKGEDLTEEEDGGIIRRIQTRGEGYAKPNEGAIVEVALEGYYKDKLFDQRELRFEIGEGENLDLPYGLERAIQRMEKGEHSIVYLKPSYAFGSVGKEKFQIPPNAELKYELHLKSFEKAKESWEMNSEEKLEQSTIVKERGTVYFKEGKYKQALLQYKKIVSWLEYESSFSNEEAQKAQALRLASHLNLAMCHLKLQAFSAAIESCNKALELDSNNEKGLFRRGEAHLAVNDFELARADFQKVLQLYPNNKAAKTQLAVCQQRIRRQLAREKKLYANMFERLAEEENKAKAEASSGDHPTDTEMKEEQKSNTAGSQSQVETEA
UniProt Q00536: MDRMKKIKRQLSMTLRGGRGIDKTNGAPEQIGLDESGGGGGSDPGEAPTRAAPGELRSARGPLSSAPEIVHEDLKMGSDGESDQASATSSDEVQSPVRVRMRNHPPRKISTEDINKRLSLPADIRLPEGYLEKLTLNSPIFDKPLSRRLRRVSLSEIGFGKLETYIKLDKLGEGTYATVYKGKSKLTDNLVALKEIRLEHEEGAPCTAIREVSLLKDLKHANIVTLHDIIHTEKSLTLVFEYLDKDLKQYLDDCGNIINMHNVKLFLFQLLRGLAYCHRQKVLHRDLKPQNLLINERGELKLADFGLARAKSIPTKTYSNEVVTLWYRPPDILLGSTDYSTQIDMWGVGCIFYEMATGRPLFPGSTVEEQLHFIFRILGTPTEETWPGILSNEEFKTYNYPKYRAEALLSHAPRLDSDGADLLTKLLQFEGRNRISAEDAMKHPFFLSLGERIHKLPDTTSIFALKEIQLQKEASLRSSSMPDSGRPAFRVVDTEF
UniProt Q04759: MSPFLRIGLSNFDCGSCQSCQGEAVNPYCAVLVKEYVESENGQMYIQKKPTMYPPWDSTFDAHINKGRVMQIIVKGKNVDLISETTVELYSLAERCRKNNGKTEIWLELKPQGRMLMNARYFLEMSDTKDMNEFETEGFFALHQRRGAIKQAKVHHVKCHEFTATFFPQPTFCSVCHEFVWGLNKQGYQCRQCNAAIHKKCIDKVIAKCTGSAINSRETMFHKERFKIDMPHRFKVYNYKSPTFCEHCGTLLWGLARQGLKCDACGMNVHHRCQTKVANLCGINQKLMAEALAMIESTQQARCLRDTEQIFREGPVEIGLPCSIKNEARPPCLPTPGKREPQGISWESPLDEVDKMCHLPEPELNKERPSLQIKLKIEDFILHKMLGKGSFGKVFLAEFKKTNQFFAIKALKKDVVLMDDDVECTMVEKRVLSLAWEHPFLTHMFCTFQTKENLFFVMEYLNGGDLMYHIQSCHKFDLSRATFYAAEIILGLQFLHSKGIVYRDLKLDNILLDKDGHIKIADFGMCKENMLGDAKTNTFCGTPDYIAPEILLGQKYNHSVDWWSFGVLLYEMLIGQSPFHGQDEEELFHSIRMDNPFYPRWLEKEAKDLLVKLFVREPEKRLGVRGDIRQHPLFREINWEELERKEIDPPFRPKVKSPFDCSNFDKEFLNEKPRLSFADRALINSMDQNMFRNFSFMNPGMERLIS
UniProt P82094: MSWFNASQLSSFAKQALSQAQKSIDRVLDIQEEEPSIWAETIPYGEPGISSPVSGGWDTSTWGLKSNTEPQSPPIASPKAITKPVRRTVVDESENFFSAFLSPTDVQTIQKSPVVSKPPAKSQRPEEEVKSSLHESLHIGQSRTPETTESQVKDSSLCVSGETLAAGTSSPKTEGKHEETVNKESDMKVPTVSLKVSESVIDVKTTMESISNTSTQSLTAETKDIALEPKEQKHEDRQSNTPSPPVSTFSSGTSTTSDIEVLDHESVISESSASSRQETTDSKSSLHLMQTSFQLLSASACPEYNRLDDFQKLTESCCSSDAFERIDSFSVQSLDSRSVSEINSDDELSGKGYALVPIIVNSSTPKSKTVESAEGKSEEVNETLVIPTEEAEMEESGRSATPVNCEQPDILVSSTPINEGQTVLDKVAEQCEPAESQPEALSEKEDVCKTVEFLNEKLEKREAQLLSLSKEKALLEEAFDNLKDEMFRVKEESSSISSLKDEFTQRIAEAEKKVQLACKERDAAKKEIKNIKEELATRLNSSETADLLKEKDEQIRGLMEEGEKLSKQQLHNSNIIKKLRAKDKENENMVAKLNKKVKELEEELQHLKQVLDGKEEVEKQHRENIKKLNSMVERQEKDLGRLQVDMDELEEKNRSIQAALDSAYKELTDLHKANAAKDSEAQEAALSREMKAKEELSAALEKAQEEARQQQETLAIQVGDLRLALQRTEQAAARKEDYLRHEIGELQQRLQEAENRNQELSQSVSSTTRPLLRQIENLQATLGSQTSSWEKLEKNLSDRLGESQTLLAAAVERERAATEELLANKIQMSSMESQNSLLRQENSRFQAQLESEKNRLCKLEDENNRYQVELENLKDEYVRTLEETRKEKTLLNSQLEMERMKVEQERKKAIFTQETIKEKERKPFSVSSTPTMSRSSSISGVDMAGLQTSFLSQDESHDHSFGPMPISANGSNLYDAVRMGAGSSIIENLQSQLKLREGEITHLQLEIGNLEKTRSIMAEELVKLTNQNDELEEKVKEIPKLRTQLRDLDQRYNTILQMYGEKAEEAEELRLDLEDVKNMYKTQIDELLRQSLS
UniProt Q05823: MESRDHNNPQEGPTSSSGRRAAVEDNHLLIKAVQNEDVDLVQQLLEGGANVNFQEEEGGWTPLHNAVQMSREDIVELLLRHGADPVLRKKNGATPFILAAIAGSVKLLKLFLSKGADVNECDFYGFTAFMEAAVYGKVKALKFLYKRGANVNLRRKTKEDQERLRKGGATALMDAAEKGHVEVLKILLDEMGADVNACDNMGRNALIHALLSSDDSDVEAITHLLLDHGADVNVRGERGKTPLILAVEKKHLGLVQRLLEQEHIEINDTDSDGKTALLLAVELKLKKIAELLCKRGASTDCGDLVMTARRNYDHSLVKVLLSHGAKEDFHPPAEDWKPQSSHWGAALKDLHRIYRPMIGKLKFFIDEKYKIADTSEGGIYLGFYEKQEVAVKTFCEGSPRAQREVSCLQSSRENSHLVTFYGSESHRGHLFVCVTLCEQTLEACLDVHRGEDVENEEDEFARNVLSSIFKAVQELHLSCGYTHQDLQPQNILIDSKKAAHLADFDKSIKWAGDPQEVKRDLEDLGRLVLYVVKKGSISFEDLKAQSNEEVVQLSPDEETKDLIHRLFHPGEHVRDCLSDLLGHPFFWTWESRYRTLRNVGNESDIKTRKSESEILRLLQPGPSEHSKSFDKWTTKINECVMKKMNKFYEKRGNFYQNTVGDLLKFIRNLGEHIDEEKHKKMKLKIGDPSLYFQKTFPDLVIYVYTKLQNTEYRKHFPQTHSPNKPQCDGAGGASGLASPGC

Compound: Nc1ncnc2c1ncn2[C@@H]1O[C@H](COP(=O)(O)OP(=O)(O)NP(=O)(O)O)[C@@H](O)[C@H]1O [adenylyl imidodiphosphate]
Assay: NP40-soluble protein abundance relative to vehicle (solubility fold change) (ratio); higher = more soluble protein in presence of AMP-PNP
Procedure, shortened: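 Values are fold changes against the detergent-processed vehicle, based on vsn-normalised intensities. Jurkat crude lysate was treated at eight concentrations from 0.1 to 10 mM (10 min at room temperature, then 3 min at 37 °C), solubilised with 0.8% NP40 and benzonase, ultracentrifuged and analysed by TMT-labelled LC-MS/MS over three independent experiments.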

| Target | NP40-soluble protein abundance (concentration: 1mM) | NP40-soluble protein abundance (concentration: 2mM) | NP40-soluble protein abundance (concentration: 4mM) | NP40-soluble protein abundance (concentration: 6mM) | NP40-soluble protein abundance (concentration: 8mM) | NP40-soluble protein abundance (concentration: 10mM) |
| --- | --- | --- | --- | --- | --- | --- |
| TBPL1 (UniProt P62380) | 0.955 ± 0.031 | 0.932 ± 0.045 | 0.963 ± 0.021 | 0.995 ± 0.071 | 1.01 ± 0.059 | 0.989 ± 0.038 |
| UniProt P62314 | 1 ± 0.033 | 1.04 ± 0.051 | 1.05 ± 0.036 | 1.09 ± 0.035 | 1.11 ± 0.055 | 1.18 ± 0.12 |
| UniProt Q02535 | 0.9856 ± 0.0021 | 0.9757 ± 0.0014 | 0.954 ± 0.012 | 0.9714 ± 0.0042 | 0.979 ± 0.013 | 0.9699 ± 0.0014 |
| UniProt P60520 | 1 ± 0.038 | 0.951 ± 0.079 | 0.975 ± 0.054 | 1.01 ± 0.048 | 1.03 ± 0.031 | 1.02 ± 0.039 |
| UniProt P55957 and related entries | 1.01 ± 0.029 | 1.11 ± 0.054 | 0.998 ± 0.061 | 0.925 ± 0.026 | 0.936 ± 0.026 | 0.907 ± 0.062 |
| UniProt Q02880 and related entries | 1.56 ± 0.036 | 1.63 ± 0.041 | 1.77 ± 0.12 | 1.88 ± 0.19 | 1.95 ± 0.18 | 2.01 ± 0.25 |
| UniProt P55769 | 1.07 ± 0.022 | 1.12 ± 0.045 | 1.12 ± 0.065 | 1.17 ± 0.014 | 1.29 ± 0.043 | 1.3 ± 0.022 |
| PPAT (UniProt Q06203) | 0.923 ± 0.054 | 0.817 ± 0.11 | 0.916 ± 0.03 | 0.921 ± 0.063 | 0.956 ± 0.043 | 0.906 ± 0.074 |
| MRPS6 (UniProt P82932) | 0.979 ± 0.026 | 1 ± 0.045 | 0.959 ± 0.007 | 0.984 ± 0.06 | 0.998 ± 0.052 | 0.959 ± 0.034 |
| PPP2CA (UniProt P67775) | 0.987 ± 0.02 | 0.9847 ± 0.0024 | 0.889 ± 0.034 | 0.967 ± 0.069 | 0.9346 ± 0.0071 | 0.913 ± 0.022 |
| UniProt Q01826 and related entries | 1.03 ± 0.033 | 1.07 ± 0.05 | 1.03 ± 0.051 | 0.985 ± 0.037 | 0.985 ± 0.026 | 1.01 ± 0.05 |
| UniProt Q00325 and related entries | 0.934 ± 0.063 | 0.855 ± 0.052 | 0.952 ± 0.077 | 1.06 ± 0.12 | 1.12 ± 0.095 | 1.1 ± 0.092 |
| UniProt P62253 | 0.995 ± 0.021 | 0.982 ± 0.02 | 0.979 ± 0.01 | 0.956 ± 0.023 | 0.938 ± 0.014 | 0.924 ± 0.027 |
| UniProt Q03933 and related entries | 1.01 ± 0.03 | 1.01 ± 0.072 | 1.01 ± 0.049 | 0.99 ± 0.017 | 0.974 ± 0.059 | 0.981 ± 0.036 |
| UniProt P80217 and related entries | 1 ± 0.033 | 1.02 ± 0.026 | 0.989 ± 0.023 | 0.983 ± 0.066 | 0.945 ± 0.037 | 1 ± 0.046 |
| RING1 (UniProt Q06587) | 1.03 ± 0.018 | 1.07 ± 0.02 | 1.07 ± 0.026 | 1.07 ± 0.036 | 1.08 ± 0.031 | 1.12 ± 0.046 |
| UniProt P78356 | 0.989 ± 0.04 | 1.02 ± 0.025 | 1.01 ± 0.012 | 1.04 ± 0.012 | 1.04 ± 0.019 | 1.09 ± 0.051 |
| FKBP4 (UniProt Q02790) | 0.98 ± 0.023 | 0.942 ± 0.032 | 0.959 ± 0.015 | 0.988 ± 0.022 | 0.976 ± 0.035 | 0.966 ± 0.02 |
| PLCB3 (UniProt Q01970) | 1.01 ± 0.027 | 0.9949 ± 0.0042 | 1.04 ± 0.017 | 0.995 ± 0.015 | 1 ± 0.023 | 0.991 ± 0.028 |
| UniProt Q00839 and related entries | 1.03 ± 0.11 | 1.02 ± 0.075 | 1.01 ± 0.17 | 1.01 ± 0.17 | 1.03 ± 0.22 | 0.981 ± 0.14 |
| UniProt P82970 | 0.98 ± 0.036 | 1.08 ± 0.11 | 0.933 ± 0.045 | 0.958 ± 0.026 | 0.892 ± 0.042 | 0.92 ± 0.083 |
| UniProt Q00536 and related entries | 0.91 ± 0.027 | 0.965 ± 0.023 | 0.909 ± 0.033 | 0.977 ± 0.052 | 0.941 ± 0.049 | 0.931 ± 0.067 |
| PRKCQ (UniProt Q04759) | 1.07 ± 0.079 | 0.991 ± 0.11 | 1.02 ± 0.068 | 1.01 ± 0.051 | 1.02 ± 0.075 | 0.975 ± 0.066 |
| UniProt P82094 and related entries | 1.04 ± 0.037 | 1.08 ± 0.046 | 1.03 ± 0.055 | 0.987 ± 0.037 | 0.98 ± 0.049 | 0.991 ± 0.054 |
| SORD (UniProt Q00796) | 0.951 ± 0.031 | 0.963 ± 0.024 | 0.958 ± 0.043 | 1.08 ± 0.094 | 1.06 ± 0.054 | 1.09 ± 0.022 |
| RNASEL (UniProt Q05823) | 1.09 ± 0.044 | 1.09 ± 0.062 | 1.11 ± 0.066 | 1.08 ± 0.039 | 1.09 ± 0.057 | 1.08 ± 0.05 |
| ACY1 (UniProt Q03154) | 1.01 ± 0.024 | 0.961 ± 0.06 | 1.01 ± 0.018 | 0.969 ± 0.02 | 1.002 ± 0.0056 | 0.975 ± 0.033 |

Fetched one by one from the entries so far (two):

| Target | NP40-soluble protein abundance (concentration: 1mM) | NP40-soluble protein abundance (concentration: 2mM) | NP40-soluble protein abundance (concentration: 4mM) | NP40-soluble protein abundance (concentration: 6mM) | NP40-soluble protein abundance (concentration: 8mM) | NP40-soluble protein abundance (concentration: 10mM) |
| --- | --- | --- | --- | --- | --- | --- |
| UniProt Q02535 | 0.9856 ± 0.0021 | 0.9757 ± 0.0014 | 0.954 ± 0.012 | 0.9714 ± 0.0042 | 0.979 ± 0.013 | 0.9699 ± 0.0014 |
| UniProt Q00536 and related entries | 0.91 ± 0.027 | 0.965 ± 0.023 | 0.909 ± 0.033 | 0.977 ± 0.052 | 0.941 ± 0.049 | 0.931 ± 0.067 |
